Experimental data as given in PubChem BioAssay AID651595 (National Center for Advancing Translational Sciences (NCATS), 2012).
Hit rate of the full screen: of about 1,100 compounds, fewer than 10 were called active. Roughly 6% stayed inconclusive and do not appear here. Calls come from the whole dose curve; as a rule, active = well fitted cell-killing curve with a large enough effect; inconclusive = small, poorly fitted or top-dose-only effect; inactive = flat fitted curve, though single readings scatter. The list shows a part of the results.

Assay: qHTS of Nrf2 Activators: Hit Validation in Cytotox Assay;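 note: compound exposure lasted 24 hours before the ATP readout; 0% is about no effect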
Details: Cell viability counter-screen for Nrf2 activator hits; series mostly up to 46.1 µM; activity change, negative = cytotoxicity: at the top concentration
How it was run: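 Intracellular ATP measured with CellTiter-Glo luminescence (30 min, room temperature) as a viability read-out. Cells: AREc32_fluc, cultured overnight before 24 h compound exposure at 7 concentrations, 37 °C; activity here marks cytotoxicity.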

Structure (SMILES) | activity change, negative = cytotoxicity
Cc1cccc(-c2n[nH]c(=S)n2/N=C/C=C/c2ccco2)c1 | inactive: 4.91%
O=C(Nc1nnc(-c2ccccc2F)s1)Nc1ccccc1F | inactive: 2.4%
Cc1ccc(S(=O)(=O)c2nc(S(C)(=O)=O)sc2N2CCOCC2)cc1 | inactive: 10.6%
CC(C)(C)SCCNC(=O)/C=C/c1cccc([N+](=O)[O-])c1 | inactive: -0.617%
Cn1c(SCC(=O)N/N=C/C=C\c2ccccc2[N+](=O)[O-])nc2ccccc21 | inactive: -4.27%
COc1ccc(NC(=O)c2ccc([N+](=O)[O-])s2)c([N+](=O)[O-])c1 | inactive: -0.981%
Clc1cccc(Cc2c(-c3ccccc3)nc3c4ccccc4ccn23)c1 | inactive: -6.37%
O=C(Nc1ccc2c(c1)C(=O)NC2=O)c1cccc(C(F)(F)F)c1 | inactive: -0.226%
COc1cc2c(cc1NC(=O)c1ccccc1F)CCCC2 | inactive: 10.5%
COc1ccc(-c2csc3nc(-c4cccnc4)nc(Cl)c23)cc1OC | inactive: -17.4%
COC(=O)c1sccc1NC(=O)c1ccccc1 | inactive: 4.25%
Cc1cc(NC(=O)Nc2cc(Cl)sc2Cl)no1 | inactive: 8.37%
CC(C)c1ccc(NC(=O)c2sccc2-n2cccc2)cc1 | inactive: -13.6%
CC(=O)Oc1c(-c2ccco2)oc2ccccc2c1=O | inactive: -19.7%
Cc1ccc(N=C2NC(=O)/C(=C/C=C/c3ccco3)S2)cc1 | inactive: -7.89%
COc1ccc(/C(N)=N/OC(=O)c2cccc([N+](=O)[O-])c2)cc1 | inactive: -1.04%
O=C1c2cccc3cccc(c23)C(=O)N1CCCN(C(=O)c1cccs1)c1cccc(F)c1 | inactive: 10.7%
Cc1ccccc1NC(=O)/C(C#N)=C/c1ccsc1 | inactive: 0.178%
N=c1oc2ccccc2cc1-c1nc(-c2ccccc2)cs1 | inactive: -19%
Cn1cc([N+](=O)[O-])c(C(=O)Nc2ccc(-c3nc4ccccc4o3)cc2)n1 | inactive: 6.82%
COc1ccc(Cl)cc1NC(=O)c1cc(-c2ccccc2O)n[nH]1 | inactive: -4.67%
CCOc1ncccc1-c1nc(-c2cccs2)no1 | inactive: -3.05%
Cc1ccc(C)c(/C=N/Nc2ccccn2)c1 | inactive: 9.8%
Clc1ccc2c(NCc3ccccn3)ncnc2c1 | inactive: 0.542%

Structure (SMILES) | activity change, negative = cytotoxicity
CCCS(=O)(=O)c1nc(S(=O)(=O)c2ccc(C)cc2)c(N2CC(C)OC(C)C2)s1 (centres undefined) | inactive: -6.55%
NC(=O)c1nc(Nc2ccccc2)sc1NC(=O)c1c(F)cccc1F | inactive: 10.2%
CC1Sc2n(c3ccccc3[n+]2C)N=C1c1ccccc1 (centres undefined) | inactive: -20.4%
O=C(Nc1nc2ccccc2[nH]1)c1cccc([N+](=O)[O-])c1 | inactive: 0.401%
Fc1ccc2cc(-c3ccsc3)ncc2c1 | inactive: 12.9%
O=C(CSc1nccc(-c2cccs2)n1)Nc1ccc(F)c(Cl)c1 | inactive: 11.3%
O=c1oc(CCO)cc2ccc(C#Cc3ccsc3)cc12 | inactive: -1.14%
O=C(Nc1ccc2c(c1)C(=O)NC2=O)c1ccccc1 | inactive: 0.51%
CC(/C=C(\NC(=O)c1ccccc1)C(=O)N=Nc1c(O)[nH]c2ccc(C)cc12)=C\c1ccccc1 | inactive: 5.27%
CSc1nsc(SC)c1C(=O)Nc1ccc(C)cc1 | inactive: 2.05%
O=C(Oc1cccc2c(O)cccc12)c1ccccc1Cl | inactive: -1.31%
O=C(Oc1cccc(-c2cnc3ccccc3n2)c1)c1ccco1 | inactive: -1.91%
O=C(/C(C=Nc1ccc(F)cc1)=C(/O)c1ccco1)C(F)(F)F | inactive: 0.0691%
c1coc(CNc2ncnc3c2oc2ccccc23)c1 | inactive: 5.56%
S=c1[nH]nc(-c2ccc(Cl)cc2)n1/N=C/C=C/c1ccco1 | inactive: -3.1%
Cc1ccc(NC(=O)CC2S/C(=N/N=C/c3ccco3)NC2=O)cc1Cl (centres undefined) | inactive: 5.34%
CC(NC(=O)/C=C/c1ccco1)c1nc2ccccc2n1Cc1c(Cl)cccc1Cl (centres undefined) | inactive: -4.44%
O=C(CSc1cccc[n+]1[O-])Nc1cc([N+](=O)[O-])ccc1Cl | inactive: -3.2%
CCn1c(=N)n(CC(=O)c2cccc([N+](=O)[O-])c2)c2ccccc21 | inactive: 4.32%
O=C(/C=C/c1cccc([N+](=O)[O-])c1)n1cnc2ccccc21 | inactive: -7.38%
CC1(O)c2ccccc2C(=O)N1CCc1ccccc1F (centres undefined) | inactive: 3.61%
Cn1c(/C(C#N)=C(\O)c2cc(Cl)sc2Cl)nc2ccccc21 | inactive: -17.8%
S=c1[nH]nc(-c2ccco2)n1/N=C/C(Cl)=C/c1ccccc1 | inactive: 1.01%
COc1ccc(Sc2cnn(-c3ccccc3)c(=O)c2Cl)cc1 | inactive: 13.3%

Structure (SMILES) | activity change, negative = cytotoxicity
COc1ccc(C2CC(c3cccs3)=Nc3ccccc3S2)cc1OC (centres undefined) | inactive: -3.75%
COc1ccccc1NC(=O)c1cc(Cl)nc2ccccc12 | inactive: 5.88%
O=C(Nc1nc2ccc(F)cc2s1)c1ccc([N+](=O)[O-])o1 | inactive: -20.4%
COC(=O)c1sccc1NC(=O)c1cccc(Cl)c1 | inactive: 6.17%
Cc1cc(=O)oc2c(C(=O)/C=C\c3cccs3)c(O)ccc12 | inactive: -9.76%
C/C(=N\NC(=O)COc1ccccc1[N+](=O)[O-])c1cccs1 | inactive: 3.87%
O=[N+]([O-])c1cccc(/C=C/c2ccccn2)c1 | inactive: -10.4%
CSc1nnc(-c2ccco2)c(-c2ccco2)n1 | inactive: 6.93%
COc1cccc(NC(=O)c2nc(SC)ncc2Cl)c1 | inactive: 9.63%
COc1ccc2oc3cc(Cl)ccc3c(=O)c2c1 | inactive: -1.78%
O=C(CCN1C(=O)/C(=C\c2ccccc2)SC1=S)N1CCCCC1 | inactive: 1.89%
COc1ccc(C2NC(=S)NC3=C2CCCC3=C2SCCS2)cc1 (centres undefined) | inactive: -5.66%
O=C(NC(=S)Nc1cccc2cccnc12)c1cccs1 | inactive: 0.375%
CC(=O)c1cccc(NC(=O)c2cc(Cl)sc2Cl)c1 | inactive: 2.61%
Clc1nc(-c2ccccc2)cc(-c2ccccc2)n1 | inactive: 2.29%
CC1(C)C2C/C(=N\O)C(C)(/[N+]([O-])=C/c3cccc([N+](=O)[O-])c3)CC21 (centres undefined) | inactive: -4.15%
c1ccc(CSc2nccc(-c3ccco3)n2)cc1 | inactive: -0.113%
CS/C(=C\C(=O)c1ccco1)Nc1ccccc1Cl | inactive: 1.08%
Cc1cc(Br)ccc1NC(=O)CNC(=O)Cn1ncc(Cl)c(Cl)c1=O | inactive: 5.51%
COc1cccc(-c2nc3n(n2)CCc2ccccc2-3)c1 | inactive: -3.83%
CCn1nc(C)c(Br)c1-c1nc(-c2cccc(C)c2)no1 | inactive: 7.1%
O=C(CSc1ccccn1)N/N=C/c1ccccc1[N+](=O)[O-] | inactive: 2.77%
Clc1ccccc1C=NNc1ccccn1 | inactive: 0.451%
N/C(=N\OC(=O)c1ccccc1Cl)c1ccncc1 | inactive: 9.47%

Structure (SMILES) | activity change, negative = cytotoxicity
COC(=O)c1sccc1NC(=O)c1cccc(F)c1 | inactive: -0.474%
CCOC(=O)c1c(NC(=O)/C=C/c2ccc(C)o2)sc(C)c1C | inactive: 4.84%
N#Cc1c(-c2ccccc2)cc(-c2ccccc2)[nH]c1=O | inactive: 5.05%
Clc1cccc(Cl)c1/C=N\Nc1nccs1 | inactive: 8.34%
Cc1ccc(/C=C/C(=O)OCC(=O)Nc2cccnc2Cl)o1 | inactive: 1.37%
O=C(CSc1nnc2c(n1)[nH]c1ccccc12)NCc1ccco1 | inactive: -4.51%
CCn1c(NC(=O)c2cccs2)nc2ccccc21 | inactive: -0.196%
O=C(CSc1ccc(-c2ccco2)nn1)NCc1ccccc1 | inactive: 3.76%
O=C(/C=C/c1ccco1)Nc1ccccc1N1CCCCC1 | inactive: 1.88%
Cc1ccnc(SCC(=O)c2ccc(Br)cc2)c1C#N | inactive: -1.45%
COc1cc(/C=C2/NC(=O)N(c3cccc(Cl)c3)C2=O)ccc1O | inactive: -0.822%
C/C(=N\Nc1ccccn1)c1ccc(Br)s1 | inactive: 2.51%
Cn1c(/C=C/c2cccc(Br)c2)nc2ccccc2c1=O | inactive: -20.8%
Cc1nn2c3c(cnc2c1-c1ccccc1)C(=O)CC(c1ccco1)C3 (centres undefined) | inactive: -7.42%
COc1ccc(NC(=O)CSc2ccc(-c3ccco3)nn2)cc1OC | inactive: 3.14%
COCCn1c(=NC(=O)c2cc(Cl)sc2Cl)sc2cc(S(N)(=O)=O)ccc21 | inactive: -4.77%
O=C(Nc1ccccc1)c1nc[nH]c1C(=O)Nc1ccccc1F | inactive: 6.57%
FC(F)(F)c1cc(-c2ccco2)nc(NCc2ccco2)n1 | inactive: 2.32%
CNc1nc(N)c([N+](=O)[O-])c(Nc2cccc(Cl)c2)n1 | inactive: -0.263%
Oc1ccc(NCc2cccc(OCc3ccc(F)cc3)c2)cc1 | inactive: -22%
CCc1c(C)sc(NC(=O)c2ccco2)c1C#N | inactive: 12.1%
O=C(Nc1nccc(-c2cccs2)n1)c1cccs1 | inactive: -1.81%
O=C(Nc1ccccc1)N1CCn2c1nc1ccccc12 | inactive: 2.76%
Clc1cc(-c2ccccc2)nc(-c2ccccc2)n1 | inactive: 13.6%

Structure (SMILES) | activity change, negative = cytotoxicity
CCn1c(=O)oc2cc(NC(=O)CCl)ccc21 | inactive: -26.7%
O=C(Nc1ccc(F)cc1)c1sccc1SCc1cccc(C(F)(F)F)c1 | inactive: 6.24%
CCC(CC)c1nnc(NC(=O)/C=C/c2ccco2)s1 | inactive: 5.01%
N#Cc1ccccc1N/C=C/C(=O)c1ccc(Cl)cc1 | inactive: -19.6%
Nc1c(C(=O)c2cccs2)oc2ccccc12 | inactive: 2.9%
CC(=O)c1nn(-c2ccccc2)cc1C(=O)c1cccc(Br)c1 | inactive: -18.1%
COc1c(Cl)cc(C(=O)NCc2ccco2)cc1Cl | inactive: 9.53%
COc1ccc2[nH]c3c(NCc4ccco4)ncnc3c2c1 | inactive: -2.65%
COc1ccc(Cl)cc1-c1nc(-c2ccncc2)no1 | inactive: 0.603%
O=C1/C(=C\c2ccco2)NC(=S)N1c1ccccc1 | inactive: 5.34%
COCCn1c(C(F)(F)F)ccc(NC(=O)c2ccccc2)c1=O | inactive: 3.26%
COc1ccc(O)c(-c2cc(-c3ccccc3Cl)[nH]n2)c1 | inactive: -8.44%
O=C(CSc1nnc(-c2ccco2)c(-c2ccco2)n1)c1ccccc1 | inactive: 2.57%
CCC1C/C(=C/c2cccs2)C(=O)/C(=C/c2cccs2)C1 (centres undefined) | inactive: -5.02%
C/C(=N\Nc1ccc(F)cc1F)c1ccc(Br)s1 | inactive: -0.678%
CS(=O)(=O)c1nc(S(=O)(=O)c2ccc(Cl)cc2)c(N2CCOCC2)s1 | inactive: 4.33%
CN(C)/C=N/C1=C(C#N)C(c2cccs2)c2ccc3ccccc3c2O1 (centres undefined) | inactive: -2.33%
Nc1nc(Nc2ccccc2F)nc(NCc2ccco2)c1[N+](=O)[O-] | inactive: -9.95%
CC1=NC(=O)C(N=Nc2cccc(O)c2)N1c1ccccc1 (centres undefined) | inactive: -10.7%
O=[N+]([O-])c1cccc(N2Cc3ccccc3C2)c1 | inactive: -2.14%
O=C(CN1CCS(=O)(=O)CC1)N/N=C/c1cccc(C(F)(F)F)c1 | inactive: -11.8%
C/C(=N\Nc1ccc2nncn2n1)c1ccc(Cl)s1 | inactive: 7.74%
CS(=O)(=O)c1nc(S(=O)(=O)c2ccc(Cl)cc2)c(N2CCN(CCO)CC2)s1 | inactive: 1.46%

Taken from above.
Under activity change, negative = cytotoxicity, O=C(CN1CCS(=O)(=O)CC1)N/N=C/c1cccc(C(F)(F)F)c1 is entered as inactive: -11.8%
Under activity change, negative = cytotoxicity, COc1ccc2[nH]c3c(NCc4ccco4)ncnc3c2c1 is entered as inactive: -2.65%
Under activity change, negative = cytotoxicity, O=C1/C(=C\c2ccco2)NC(=S)N1c1ccccc1 is entered as inactive: 5.34%
Under activity change, negative = cytotoxicity, CCn1c(=O)oc2cc(NC(=O)CCl)ccc21 is entered as inactive: -26.7%
Under activity change, negative = cytotoxicity, CCC1C/C(=C/c2cccs2)C(=O)/C(=C/c2cccs2)C1 (centres undefined) is entered as inactive: -5.02%

Quoted at random: 2 compounds from above.
Structure (SMILES) | activity change, negative = cytotoxicity
O=C(Nc1ccccc1)c1nc[nH]c1C(=O)Nc1ccccc1F | inactive: 6.57%
O=C(Oc1cccc2c(O)cccc12)c1ccccc1Cl | inactive: -1.31%
